Experimental findings from patent publication US7833685B2, “Coloring compound and yellow toner containing the coloring compound” (Canon Kabushiki Kaisha, priority 2006, dated 2010) are described below.

Some entries repeat one wording, which the source may state once for all of them.

The data set in a line: Evaluation of coloring compound for color tone (chroma c*). The data set is classed as physicochemical. Conditions: c* at L*=88, on CLC color copy paper.
For the compound `CCCCC(CC)CN(CC(CC)CCCC)C(=O)c1ccccc1/N=N/c1c(O)[nH]c(=O)c(C#N)c1C` (stereo not shown) [D1], the Color tone result was “A (c* is 80 or more)”. Take `CCCCC(CC)CN(CC(CC)CCCC)C(=O)c1ccccc1N=Nc1c(O)[nH]c(=O)c(C#N)c1-c1ccccc1` (stereo not shown) [D2]: the Color tone entry was “A (c* is 80 or more)”. `CCCCCCN(CCCCCC)C(=O)c1ccccc1N=Nc1c(O)[nH]c(=O)c(C#N)c1C` [D3]: the Color tone entry is “A (c* is 80 or more)”. `CCCCCCCCCCCCN(CCCCCCCCCCCC)C(=O)c1ccccc1N=Nc1c(O)[nH]c(=O)c(C#N)c1C` [D4]: the Color tone entry is “A (c* is 80 or more)”.

With `CCCCCCCCCCCCN(CCCCCCCCCCCC)C(=O)c1cc(Cl)ccc1N=Nc1c(O)[nH]c(=O)c(C#N)c1C` [D5], the Color tone entry is recorded as “A (c* is 80 or more)”. As for `CCCCc1c(N=Nc2ccc(C)cc2C(=O)OCC(CC)CCCC)c(O)[nH]c(=O)c1C#N` (stereo not shown) [D6], the Color tone entry is “A (c* is 80 or more)”. Consider `CCCCC(CC)CN(CC(CC)CCCC)C(=O)c1ccccc1N=Nc1c(C)cc(=O)[nH]c1O` (stereo not shown) [D7], for which the Color tone result is “A (c* is 80 or more)”. As for `CCCCCCCCc1ccc(OC(=O)c2ccccc2N=Nc2c(O)[nH]c(=O)c(C#N)c2C)cc1` [D8], the entry is “A (c* is 80 or more)”; as for `CCCCc1c(N=Nc2ccc(OC)cc2C(=O)OC(c2ccccc2)c2ccccc2)c(O)[nH]c(=O)c1C#N` [D10], “A (c* is 80 or more)”; as for `Cc1c(N=Nc2ccccc2C(=O)N(Cc2ccccc2)Cc2ccccc2)c(O)[nH]c(=O)c1C#N` [D11], “A (c* is 80 or more)”. In the case of `Cc1c(N=Nc2ccccc2C(=O)N(c2ccccc2)c2ccccc2)c(O)[nH]c(=O)c1C#N` [D12], the Color tone entry is “A (c* is 80 or more)”.

On to `CCCCC(CC)CN(CC(CC)CCCC)C(=O)c1ccccc1N=Nc1c(O)[nH]c(=O)c(C(N)=O)c1C` (stereo not shown) [D14], for which the Color tone entry is “A (c* is 80 or more)”. On to `CCCCc1c(N=Nc2ccccc2C(=O)NCC(CC)CCCC)c(O)[nH]c(=O)c1C#N` (stereo not shown) [D15], for which the Color tone entry was “B (c* is 75 or more and less than 80)”. `CCCCc1c(N=Nc2ccccc2C(=O)N2CCC(CCC)CC2)c(O)[nH]c(=O)c1C#N` [D16]: the Color tone result is “A (c* is 80 or more)”. As for `CCCCc1ccc(N=Nc2c(O)[nH]c(=O)c(C#N)c2C)cc1` [E1, reference compound], the Color tone entry is “C (c* is less than 75)”. On to `CCCCn1c(O)c(N=Nc2ccc(Cl)cc2)c(C)c(C#N)c1=O` [E2, reference compound], for which the Color tone entry is “B (c* is 75 or more and less than 80)”.

`CCCCC(CC)CNS(=O)(=O)c1ccc(N=Nc2c(C)c(C#N)c(=O)n(CCCC)c2O)cc1` (stereo not shown) [E3, reference compound]: the Color tone entry was “A (c* is 80 or more)”.

As for `Cc1c(N=Nc2ccc(N(C)C)cc2)c(O)n(CCCl)c(=O)c1C#N` [E4, reference compound], the Color tone result is given as “C (c* is less than 75)”.

As to `CCCCn1c(O)c(N=Nc2ccc(C(=O)OC)cc2)c(C)c(C#N)c1=O` [E5, reference compound], the Color tone entry is “B (c* is 75 or more and less than 80)”.

For the compound `CCCCC(CC)CN(CC(CC)CCCC)C(=O)c1ccc(N=Nc2c(C)c(C#N)c(=O)n(CC)c2O)cc1` (stereo not shown) [E6, reference compound], the Color tone result is “A (c* is 80 or more)”. Take `CCCCn1c(O)c(N=Nc2cccc(C)c2)c(C)c(C#N)c1=O` [E7, reference compound]: the Color tone result is given as “C (c* is less than 75)”. Regarding `CCCCn1c(O)c(N=Nc2ccccc2[N+](=O)[O-])c(C)c(C#N)c1=O` [E8, reference compound], the Color tone result is given as “C (c* is less than 75)”. On to `CCCCC(CC)CN(CC(CC)CCCC)C(=O)c1cccc(N=Nc2c(O)[nH]c(=O)c(C#N)c2C)c1` (stereo not shown) [E9, reference compound], for which the Color tone result was “A (c* is 80 or more)”.

As for `CCCCC(CC)CN(CC(CC)CCCC)C(=O)c1ccc(N=Nc2c(O)[nH]c(=O)c(C#N)c2C)cc1` (stereo not shown) [E10, reference compound], the Color tone entry is on record as “C (c* is less than 75)”. Turning to `CCCCC(CC)CN(CC(CC)CCCC)C(=O)c1ccccc1N=Nc1c(C)c(C#N)c(=O)n(CC)c1O` (stereo not shown) [E11, reference compound], the Color tone entry was “A (c* is 80 or more)”.
